Measurements taken from PubChem BioAssay AID1794845 (National Center for Advancing Translational Sciences (NCATS), 2023).
The campaign covered roughly 6,900 compounds. Fewer than 10 were called active. Calls follow the shape of the dose curve; as a rule, active = well fitted curve in the direction sought with a large enough effect; inconclusive = small, poorly fitted or top-dose-only effect, or another doubt; inactive = no such curve, though single readings can be large or run the other way. This is one part of the list.

Amino acid sequences for entries named in this document (tags omitted). A change or cut given only in a name is not applied to a line headed by its entry.
UniProt C7C422: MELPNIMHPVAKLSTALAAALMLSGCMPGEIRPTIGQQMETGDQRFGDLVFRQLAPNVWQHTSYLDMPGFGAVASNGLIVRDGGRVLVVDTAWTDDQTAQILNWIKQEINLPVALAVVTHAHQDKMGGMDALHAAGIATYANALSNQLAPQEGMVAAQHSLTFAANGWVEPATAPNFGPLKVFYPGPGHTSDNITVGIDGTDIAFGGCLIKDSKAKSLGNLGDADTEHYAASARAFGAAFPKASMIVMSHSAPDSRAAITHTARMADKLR

biological target: Metallo-beta-lactamase type 2 (Klebsiella pneumoniae) (UniProt C7C422); assay: qHTS to identify inhibitors of the New Delhi Metallo-beta-lactamase (NDM): primary screen against the NCATS Gemini Collection; conditions: NDM-1 enzyme, meropenem hydrolysis, absorbance 300 nm; at 38.4 µM (top of the series) unless noted; also: % of control where 0% means no effect
Summary of the method: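 NDM-1 at 2 nM final in 50 mM HEPES pH 7.0, 1 uM ZnSO4, 0.01% Tween20, preincubated >30 min with compound. Meropenem 50 uM final added; absorbance at 300 nm after 30 min.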

Activity % (negative = inhibition), inactive:
COc1cccc(CN2Cc3cc(NC(=O)Cc4cccs4)ccc3OCC2=O)c1OC 11.7%
Cc1nn2c(c1-c1ccccc1C(C)C)N([S+](=O)([O-])c1ccc(C(C)C)cc1)CCC2 9% [at 57.5 µM]
O=C(CCCc1ccccc1)Nc1ccnn1C1CCN(C(=O)c2ccccc2F)CC1 4.71%
CC(C)N1C(=O)C2(CCN(C(=O)c3ccccc3F)CC2)C1c1ccccc1 (configuration not stated) 1.34%
Cc1nn2c(c1-c1ccccc1C(C)C)N(C(=O)c1cccnc1)CCC2 3.01% [at 57.5 µM]
COc1ccccc1CN1CCC(CN(CC(C)C)C(=O)C2C=CCN2)CC1 (configuration not stated) -2.2%
CN(Cc1noc(C2CCCC2)n1)c1cc(C2CC(O)C2)ncn1 (configuration not stated) -0.467%
COc1cc2nc(-c3cc4c(c(OC)c3)OCCNC4)cc(C)c2cc1OC -0.172%
COC(=O)c1c(NC(=O)c2ccccc2)c2cc(NC3CCOCC3)cnc2n1CC1CCCO1 (configuration not stated) 3.61%
Cc1nc(C)c(C(=O)N2CCC(C(=O)N3CCCCCCNC(=O)CC3)CC2)s1 -0.427%
CC(=O)N1CCC(N[C@@H]2CO[C@H](CNC(=O)c3ccncc3)[C@H]2O)CC1 1.34% [at 57.5 µM]
C[C@@H](c1ccccc1)N(C)C(=O)c1cc(COc2cccc(F)c2)[nH]n1 27.1%
COc1ccc(CCC(=O)N2CCCC(n3cc(-c4nc(-c5ccccc5)no4)nn3)C2)cc1 (configuration not stated) 18.1%
O=C(Nc1ccc(Oc2ccccc2)cc1)N[C@H]1CO[C@H]2[C@@H]1OC[C@@H]2n1nnnc1Oc1ccc(-n2cncn2)cc1 21.2%
CC(=O)N1CCCN(Cc2ccc3c(c2)OCO3)c2ccccc21 6.47%
O=C(Cc1ccc2c(c1)OCO2)N1CCOCC2(CN(Cc3ccccc3)C2)C1 7.51% [at 57.5 µM]
CC(C)C(=O)N1CCC2(CC1)OC(=O)N(Cc1ccccc1C#N)C2(C)c1ccccc1 (configuration not stated) 1.42% [at 57.5 µM]
COc1ccc([C@H]2C[C@@H](O)[C@@H](O)[C@@H]2NC(=O)c2ccccn2)cc1 33.4% [at 57.5 µM]
CCNC(=O)N1CCCCCC1CN1CCC(C)CC1 (configuration not stated) 22.6%
CC(C)NC(=O)O[C@@H]1CC[C@]2(C)C(CC[C@@H](O)[C@H]2CC(=O)NCc2ccco2)[C@]1(C)CO (some centres not stated) 3%
C[C@H](c1ccccc1)N1C(=O)[C@@H]2CN(C(=O)CC(C)(C)C)CCN2C1=O -4.33% [at 57.5 µM]
CC(O)CN1CC2(CCC1=O)CCN(CCCn1ccnc1)CC2 (configuration not stated) 1.64%
O=C(C1CC1)N1CCC2(CC1)NC(=O)N(c1cccc(Cl)c1)N2 -0.13%
C[C@H](O)c1onc(-c2ccc(F)cc2)c1C(=O)N1CCCC1 -1.17% [at 57.5 µM]
CN1CCN([C@H]2CCN(Cc3cccs3)C[C@H]2CCC(=O)O)CC1 47.4%
O=C(C[C@H]1NC(=O)c2ccccc2NC1=O)Nc1ccc(N2CCCS2(=O)=O)cc1 1.72%
Cc1ccc(NC(=O)N2CCCN(CCn3nc4n(c3=O)CCCC4)CC2)cc1F 0.991%
Cc1noc(C)c1-c1cn(C)c(=O)n2cc(COc3ccc(Cl)cc3)nc12 10.7% [at 57.5 µM]
COc1ccc(OC)c(S(=O)(=O)Nc2nc3c(s2)C[C@]2(C)CC[C@@H]4[C@H](OC(=O)[C@H]4C)[C@H]2[C@@H]3C)c1 1.44%
COc1ccc(CC(=O)N[C@H]2[C@H](O)[C@H](O)C[C@@H]2c2ccccc2)cc1 16.6% [at 57.5 µM]
CCN1CCN(CC(O)COc2cccc(CNCc3cnn(CC)c3)c2)CC1 (configuration not stated) 4.28%
O=C(C1CC1)N1CCn2c(nn(-c3ccc(F)cc3)c2=O)C1 3.77% [at 57.5 µM]
C[S+](=O)([O-])c1cccc(NC(=O)Cc2c[nH]c3ncc(-c4cccnc4)cc23)c1 50.2% [at 57.5 µM]
COc1ccc(CCC(=O)N2CCC(Cc3nc(-c4ccc(OC)cc4)no3)CC2)cc1 -1.68%
CCCS(=O)(=O)N1CCC(c2noc(-c3ccccc3)n2)C1 (configuration not stated) -2%
COc1ccc(CN2CCC3(C2)C(=NC2CCCCC2)NC(=O)N3c2cc(F)cc(F)c2)cc1 (configuration not stated) 8.51%
COc1cc2c(cc1O)NC(=O)CC2c1cn[nH]c1-c1cc(C)ccc1C (configuration not stated) 0.433%
CC(C)COc1cc(=O)n2c(c1C(=O)NC1CCCCC1)CCCCC2 27.5%
CS(=O)(=O)N1CCC(OC2CCN(C(=O)c3cccnc3)CC2)CC1 -8.58%
CCC1(N2CCN(C(=O)c3ccccc3C(F)(F)F)CC2)CCN(C(=O)C(C)C)C1 (configuration not stated) 2.4%
COc1ccc(C(=O)N2CCC3(CC2)CN(c2ccccc2)C3=O)cc1OC -1.28%
O=C(C1CCN(c2cnn(Cc3ccccc3)c(=O)c2)C1)N1CCCC1 (configuration not stated) 1.93%
CCC(CC)C(=O)NCCc1noc(C)n1 -2.09%
Cc1ccc(-c2ncc(C(=O)N3CCC(Nc4ncccn4)CC3)c(=O)[nH]2)cc1 18.3%
COc1cccc(C(=O)N2CCC3(CCNCC3)CC2)c1C 18.6%
O=[S+]1([O-])N(c2ccccc2)C[C@@H](O)[C@]12CCN(Cc1ccc(OC(F)F)cc1)C2 -12.1%
O=C(c1cccc(F)c1)N1CCCC(CN2CCOCC2)CC1 (configuration not stated) 12.2%
COc1cc(CNCCc2ccc(Cl)cc2)ccc1OCC(O)CN1CCOCC1 (configuration not stated) -1.82%
CCc1cc(N2CCN(C(=O)[C@H]3CCC[C@@H](O)C3)CC2)ncn1 5.39%
O=C(O)C1=NOC2CN(Cc3nc4ccccc4s3)CC12 (configuration not stated) 3.65% [at 57.5 µM]
COc1cccc(CC(=O)N2CCCCCCN(C)C(=O)[C@H]3CCC[C@H]32)c1 12.9%
Cc1cccc(-c2cccc(CN3CCC(N[S+](=O)([O-])c4c(C)noc4C)CC3)c2)c1 -0.993%
COC(=O)CC(NC(=O)Nc1cccn2nc(C)nc12)c1ccccc1 (configuration not stated) 2.43%
CCC1(CO)CCCN(CCCOc2ccc(C(N)=O)cc2)C1 (configuration not stated) -4.55%
NC(=O)CN1CCC(c2nc(-c3ccc4nc[nH]c4c3)no2)CC1 -1.29%
CCCCC1C(=O)N(C)CCN1c1nc2c(s1)c(C)nn2C (configuration not stated) 1.29%
O=C(c1cnn2cccnc12)N(Cc1ccncc1)Cc1cccc(OCCc2ccc(F)cc2)c1 24.3%
CCNc1ncnc2sc3c(c12)CCN(Cc1ccco1)C3 12.7%
COCCNC(=O)[C@@H]1CCC[C@@H](NC(=O)c2c(-c3ccccc3)noc2C)CN(C)C(=O)C1 -15.5%
O=C([C@@H]1C[C@H](Oc2cccnc2)CN1C(=O)c1cc2ccccc2[nH]1)N1CCCC1 18.5%
Cn1nc(N2CCC(NS(=O)(=O)c3ccc4c(c3)CCC4)CC2)ccc1=O 29.6%
Cc1ccc(NC(=O)N2CCC(c3noc(COCC4CC4)n3)CC2)cc1F 0.901%
CCn1c(CO)nnc1C1CC(NC(=O)c2oc3cc(OC)ccc3c2C)C1 (configuration not stated) -11.9%
CC1CN(c2ccccc2C#N)C(=O)CN1C(=O)c1ccc2c(c1)OCCO2 (configuration not stated) -0.521%
COC1CCCOC12CCN(C(=O)CCn1c(C)nc3ccccc31)CC2 (configuration not stated) 2.42%
CNC(=O)[C@@H]1C[C@H](Oc2ccccc2)CN1S(=O)(=O)Cc1ccccc1F -0.29%
Cc1cc(C)n(Cc2cccc(C(=O)N3Cc4ccccc4C(O)C3)c2)n1 (configuration not stated) -2.66%
CCNC(=O)c1ccc2c(c1)OCCN(c1cccc(OC(F)(F)F)c1)C2 20.1% [at 57.5 µM]
COc1ccc(C(=O)N2CC(N(C3CCOCC3)S(C)(=O)=O)C2)cn1 -5.21%
COC[C@@H]1OC[C@@]2(C)C3CC[C@@H](O)[C@@H](CC(=O)N4CCCCC4)[C@]3(C)CC[C@H]2O1 (some centres not stated) -3.61% [at 57.5 µM]
O=C(NCc1cccc(C(F)(F)F)c1)c1ccc2nnc(-c3cc[nH]c3)n2c1 18.4%
Cc1ccc(-c2ccccc2CN2CCN(C(=O)Nc3ccccc3)CC2)cc1Cl 0.811%
O=C(NC1CCCC1)c1ccc(OC2CCN(CCCC(F)(F)F)CC2)c(Cl)c1 5.27%
Cc1nn2c(c1-c1ccccc1C(C)C)N(C(=O)c1cnccn1)CCC2 1.93% [at 57.5 µM]
COc1ccc(CO[C@H]2COCCN(c3nc4ccccc4s3)C2)cc1 -2.68% [at 57.5 µM]
O=C(c1cccnc1)N1CCC2(CC1)CC(N(C(=O)c1ccccc1)C1CC1)CCO2 (configuration not stated) -8.5%
COc1ccc(C(=O)Nc2cnc3c(c2)CCC3)cc1 9.21%
CC(C)C1=NOC2(CCN(C(=O)C3CCCC3)CC2)C1 -0.922% [at 57.5 µM]
CCC1(N2CCN(S(=O)(=O)c3cc(F)ccc3C)CC2)CCN(C(=O)NC)C1 (configuration not stated) -2.47%
CN(CCO)C(=O)c1cn2cc(-c3cccs3)n(CC3CC3)c(=O)c2n1 -0.0523%
COCCNC(=O)c1nc(-c2ccsc2)c2ccccn12 31.8% [at 57.5 µM]
CC(C)NC(=O)NC[C@H]1O[C@@H](CO)[C@@H](O)[C@H]1N(C)CCN(C)C 15.7% [at 57.5 µM]

Reprinted at random: five compounds from above, in no set order.
Activity % (negative = inhibition), inactive:
CN(Cc1noc(C2CCCC2)n1)c1cc(C2CC(O)C2)ncn1 (configuration not stated) -0.467%
Cn1nc(N2CCC(NS(=O)(=O)c3ccc4c(c3)CCC4)CC2)ccc1=O 29.6%
Cc1ccc(-c2ncc(C(=O)N3CCC(Nc4ncccn4)CC3)c(=O)[nH]2)cc1 18.3%
O=C(Cc1ccc2c(c1)OCO2)N1CCOCC2(CN(Cc3ccccc3)C2)C1 7.51% [at 57.5 µM]
Cc1cccc(-c2cccc(CN3CCC(N[S+](=O)([O-])c4c(C)noc4C)CC3)c2)c1 -0.993%
